This is one part of the list. The data scatter; read single values as rough.
Columns and labels:
[1] = compound: ClCC(=O)N[C@@H]1CCCc2ccccc12; assay: log2 mean competition ratio of IA-DTB cysteine labelling (DMSO/compound) (log2 ratio); higher = stronger cysteine engagement by compound; settings: treatment time: 4 h, cell line lysate: HEK293T
Experimental: (§1)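 IA-DTB competitive cysteine chemoproteomics in HEK293T RIPA lysate. Lysates were treated with compound 29 or 30 at 50 or 200 µM for 4 h, then IA-DTB (500 µM, 1 h), trypsin-digested, NeutrAvidin-enriched and analysed by diaPASEF. Competition ratio = intensity DMSO / intensity compound (n=4 treated, n=64 DMSO); binding: mean log2 CR ≥ 1 and p ≤ 0.05 plus QC filters. Target is the cysteine site.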

Sequences of proteins named here, by UniProt entry; tags and fusion partners are left off. A change or cut given only in a name is not applied to a line headed by its entry. Residues count along the entry.
UniProt O95059: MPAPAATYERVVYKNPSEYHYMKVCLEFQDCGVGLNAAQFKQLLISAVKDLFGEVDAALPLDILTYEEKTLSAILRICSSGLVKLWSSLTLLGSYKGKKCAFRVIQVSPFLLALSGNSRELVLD
UniProt Q9HB90: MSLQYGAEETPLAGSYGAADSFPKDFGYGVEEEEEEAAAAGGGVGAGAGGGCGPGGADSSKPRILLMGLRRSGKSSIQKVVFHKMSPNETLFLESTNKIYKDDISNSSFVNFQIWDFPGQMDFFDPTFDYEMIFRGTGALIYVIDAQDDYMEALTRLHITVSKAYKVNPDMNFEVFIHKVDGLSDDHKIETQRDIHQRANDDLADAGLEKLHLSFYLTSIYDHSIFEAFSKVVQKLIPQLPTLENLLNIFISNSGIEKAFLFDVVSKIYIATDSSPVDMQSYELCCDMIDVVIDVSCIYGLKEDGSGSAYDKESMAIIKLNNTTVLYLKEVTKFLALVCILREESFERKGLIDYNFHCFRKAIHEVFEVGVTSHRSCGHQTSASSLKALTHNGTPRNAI
UniProt O95197: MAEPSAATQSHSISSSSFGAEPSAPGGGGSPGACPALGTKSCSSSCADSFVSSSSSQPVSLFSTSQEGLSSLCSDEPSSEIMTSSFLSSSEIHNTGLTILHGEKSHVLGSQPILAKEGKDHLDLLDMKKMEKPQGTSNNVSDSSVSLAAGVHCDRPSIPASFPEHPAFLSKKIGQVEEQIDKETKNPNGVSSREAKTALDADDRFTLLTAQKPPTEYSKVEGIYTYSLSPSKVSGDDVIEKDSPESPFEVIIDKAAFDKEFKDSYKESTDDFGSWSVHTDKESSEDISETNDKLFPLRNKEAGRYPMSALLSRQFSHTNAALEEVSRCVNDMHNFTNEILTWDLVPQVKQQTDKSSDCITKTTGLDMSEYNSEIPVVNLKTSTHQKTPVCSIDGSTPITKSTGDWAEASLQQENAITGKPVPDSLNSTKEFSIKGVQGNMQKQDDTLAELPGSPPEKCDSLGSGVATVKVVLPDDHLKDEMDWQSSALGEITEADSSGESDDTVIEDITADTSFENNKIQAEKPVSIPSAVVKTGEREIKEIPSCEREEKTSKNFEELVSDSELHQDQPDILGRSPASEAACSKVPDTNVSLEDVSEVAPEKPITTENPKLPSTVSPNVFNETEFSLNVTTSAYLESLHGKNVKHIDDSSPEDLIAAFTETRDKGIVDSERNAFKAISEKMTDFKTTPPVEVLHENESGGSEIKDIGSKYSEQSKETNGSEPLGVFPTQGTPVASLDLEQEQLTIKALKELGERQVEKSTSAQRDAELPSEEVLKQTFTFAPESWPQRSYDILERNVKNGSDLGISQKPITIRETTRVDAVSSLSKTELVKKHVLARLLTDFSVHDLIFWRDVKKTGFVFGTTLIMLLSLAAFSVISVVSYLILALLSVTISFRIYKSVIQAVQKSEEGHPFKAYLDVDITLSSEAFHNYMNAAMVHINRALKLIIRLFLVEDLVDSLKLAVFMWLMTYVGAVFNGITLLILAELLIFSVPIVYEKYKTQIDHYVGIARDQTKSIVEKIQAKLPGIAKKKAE
UniProt O75582, whole entry, looked up: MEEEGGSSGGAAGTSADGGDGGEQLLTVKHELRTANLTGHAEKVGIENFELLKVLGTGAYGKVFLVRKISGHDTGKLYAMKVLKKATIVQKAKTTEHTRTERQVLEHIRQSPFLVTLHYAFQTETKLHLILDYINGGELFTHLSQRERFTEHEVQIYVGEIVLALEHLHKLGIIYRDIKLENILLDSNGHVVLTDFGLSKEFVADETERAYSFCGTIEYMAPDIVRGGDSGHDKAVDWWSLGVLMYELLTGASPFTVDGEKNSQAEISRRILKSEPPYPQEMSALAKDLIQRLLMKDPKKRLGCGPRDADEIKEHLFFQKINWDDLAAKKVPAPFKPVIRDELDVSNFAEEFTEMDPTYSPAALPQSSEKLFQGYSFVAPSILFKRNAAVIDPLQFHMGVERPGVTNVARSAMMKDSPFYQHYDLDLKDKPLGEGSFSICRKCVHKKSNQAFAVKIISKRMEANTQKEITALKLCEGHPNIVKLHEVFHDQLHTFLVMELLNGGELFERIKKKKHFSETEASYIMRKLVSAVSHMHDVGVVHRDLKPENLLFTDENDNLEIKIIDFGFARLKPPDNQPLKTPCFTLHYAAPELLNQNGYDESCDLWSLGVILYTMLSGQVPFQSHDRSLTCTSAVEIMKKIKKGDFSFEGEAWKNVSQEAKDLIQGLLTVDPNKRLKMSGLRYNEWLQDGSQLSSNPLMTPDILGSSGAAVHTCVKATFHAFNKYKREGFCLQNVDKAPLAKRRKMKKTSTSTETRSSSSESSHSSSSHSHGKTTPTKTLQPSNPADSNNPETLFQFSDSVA
UniProt P62070: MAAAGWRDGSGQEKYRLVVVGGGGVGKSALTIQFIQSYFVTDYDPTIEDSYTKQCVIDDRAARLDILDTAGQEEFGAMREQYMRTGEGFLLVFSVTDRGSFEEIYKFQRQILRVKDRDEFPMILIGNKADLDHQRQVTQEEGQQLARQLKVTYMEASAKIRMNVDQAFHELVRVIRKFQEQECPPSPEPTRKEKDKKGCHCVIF
UniProt O75818: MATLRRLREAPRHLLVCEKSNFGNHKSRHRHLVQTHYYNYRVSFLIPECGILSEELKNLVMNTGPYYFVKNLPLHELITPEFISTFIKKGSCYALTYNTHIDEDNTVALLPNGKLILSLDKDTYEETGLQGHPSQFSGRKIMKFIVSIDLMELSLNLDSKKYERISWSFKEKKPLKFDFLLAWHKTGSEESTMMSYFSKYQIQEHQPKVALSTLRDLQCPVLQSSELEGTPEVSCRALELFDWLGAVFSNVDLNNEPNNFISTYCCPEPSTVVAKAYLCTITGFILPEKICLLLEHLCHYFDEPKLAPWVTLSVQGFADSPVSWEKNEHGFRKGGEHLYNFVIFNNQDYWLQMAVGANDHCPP
UniProt Q96AT9: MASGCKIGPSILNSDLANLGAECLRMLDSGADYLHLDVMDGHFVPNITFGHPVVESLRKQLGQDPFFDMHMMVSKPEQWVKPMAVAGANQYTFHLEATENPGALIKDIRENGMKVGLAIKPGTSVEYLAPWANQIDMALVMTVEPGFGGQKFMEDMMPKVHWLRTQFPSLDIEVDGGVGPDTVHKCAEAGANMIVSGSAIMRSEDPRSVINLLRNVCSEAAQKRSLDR
UniProt P04843: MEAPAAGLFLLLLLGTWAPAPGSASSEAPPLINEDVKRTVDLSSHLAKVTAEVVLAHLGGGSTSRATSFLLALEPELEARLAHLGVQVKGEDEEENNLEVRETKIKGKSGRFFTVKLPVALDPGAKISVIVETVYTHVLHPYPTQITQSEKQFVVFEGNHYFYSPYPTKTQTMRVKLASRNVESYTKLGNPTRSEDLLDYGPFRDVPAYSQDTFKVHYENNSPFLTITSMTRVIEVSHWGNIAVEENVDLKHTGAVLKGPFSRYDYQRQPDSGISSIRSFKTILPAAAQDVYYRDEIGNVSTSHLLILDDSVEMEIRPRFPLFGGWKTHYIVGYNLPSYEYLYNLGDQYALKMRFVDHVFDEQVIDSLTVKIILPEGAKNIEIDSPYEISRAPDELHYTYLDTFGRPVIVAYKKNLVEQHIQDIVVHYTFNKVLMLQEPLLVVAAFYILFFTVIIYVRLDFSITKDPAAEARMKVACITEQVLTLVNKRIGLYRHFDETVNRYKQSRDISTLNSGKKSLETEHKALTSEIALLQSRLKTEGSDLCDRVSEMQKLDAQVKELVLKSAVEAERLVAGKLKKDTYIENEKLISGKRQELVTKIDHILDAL
UniProt P78345: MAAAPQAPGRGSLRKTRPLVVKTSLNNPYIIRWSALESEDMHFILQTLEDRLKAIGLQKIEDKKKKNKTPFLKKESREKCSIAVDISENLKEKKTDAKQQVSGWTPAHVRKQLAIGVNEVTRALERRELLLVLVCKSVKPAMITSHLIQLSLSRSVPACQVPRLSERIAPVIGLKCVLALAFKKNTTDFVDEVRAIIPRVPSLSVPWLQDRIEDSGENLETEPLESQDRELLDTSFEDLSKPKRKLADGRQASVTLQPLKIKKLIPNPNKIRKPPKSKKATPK
UniProt Q9NQG5: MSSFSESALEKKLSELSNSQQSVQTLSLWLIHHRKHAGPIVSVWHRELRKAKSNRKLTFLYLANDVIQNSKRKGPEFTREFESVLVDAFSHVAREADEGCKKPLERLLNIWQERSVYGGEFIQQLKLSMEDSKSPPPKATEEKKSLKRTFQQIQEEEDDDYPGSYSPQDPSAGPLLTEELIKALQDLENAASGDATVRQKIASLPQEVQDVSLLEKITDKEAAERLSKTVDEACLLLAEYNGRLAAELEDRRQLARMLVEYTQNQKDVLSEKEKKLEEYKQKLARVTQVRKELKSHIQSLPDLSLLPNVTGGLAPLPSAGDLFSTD
UniProt Q8ND24, 2-26: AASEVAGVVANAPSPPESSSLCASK
UniProt Q96T51: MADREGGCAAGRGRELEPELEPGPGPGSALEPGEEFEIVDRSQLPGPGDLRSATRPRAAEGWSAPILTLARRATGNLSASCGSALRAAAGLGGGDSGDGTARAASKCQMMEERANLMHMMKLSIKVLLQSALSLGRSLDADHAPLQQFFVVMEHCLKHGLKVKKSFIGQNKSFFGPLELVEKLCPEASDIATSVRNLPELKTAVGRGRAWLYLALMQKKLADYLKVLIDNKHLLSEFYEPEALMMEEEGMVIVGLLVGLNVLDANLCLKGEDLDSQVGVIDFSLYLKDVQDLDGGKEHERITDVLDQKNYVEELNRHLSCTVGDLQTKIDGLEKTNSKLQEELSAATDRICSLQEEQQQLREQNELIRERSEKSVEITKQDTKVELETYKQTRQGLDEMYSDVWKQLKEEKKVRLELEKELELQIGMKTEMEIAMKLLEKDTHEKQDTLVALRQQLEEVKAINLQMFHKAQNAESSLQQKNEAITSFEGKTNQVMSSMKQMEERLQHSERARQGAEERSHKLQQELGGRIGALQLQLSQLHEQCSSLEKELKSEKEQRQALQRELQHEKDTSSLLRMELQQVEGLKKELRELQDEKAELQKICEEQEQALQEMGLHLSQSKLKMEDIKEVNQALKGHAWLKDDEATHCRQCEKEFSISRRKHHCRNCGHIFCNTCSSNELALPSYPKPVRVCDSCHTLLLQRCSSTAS
UniProt P04844, 77-109: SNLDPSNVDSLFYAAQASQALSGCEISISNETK
UniProt Q8N122, whole entry, looked up: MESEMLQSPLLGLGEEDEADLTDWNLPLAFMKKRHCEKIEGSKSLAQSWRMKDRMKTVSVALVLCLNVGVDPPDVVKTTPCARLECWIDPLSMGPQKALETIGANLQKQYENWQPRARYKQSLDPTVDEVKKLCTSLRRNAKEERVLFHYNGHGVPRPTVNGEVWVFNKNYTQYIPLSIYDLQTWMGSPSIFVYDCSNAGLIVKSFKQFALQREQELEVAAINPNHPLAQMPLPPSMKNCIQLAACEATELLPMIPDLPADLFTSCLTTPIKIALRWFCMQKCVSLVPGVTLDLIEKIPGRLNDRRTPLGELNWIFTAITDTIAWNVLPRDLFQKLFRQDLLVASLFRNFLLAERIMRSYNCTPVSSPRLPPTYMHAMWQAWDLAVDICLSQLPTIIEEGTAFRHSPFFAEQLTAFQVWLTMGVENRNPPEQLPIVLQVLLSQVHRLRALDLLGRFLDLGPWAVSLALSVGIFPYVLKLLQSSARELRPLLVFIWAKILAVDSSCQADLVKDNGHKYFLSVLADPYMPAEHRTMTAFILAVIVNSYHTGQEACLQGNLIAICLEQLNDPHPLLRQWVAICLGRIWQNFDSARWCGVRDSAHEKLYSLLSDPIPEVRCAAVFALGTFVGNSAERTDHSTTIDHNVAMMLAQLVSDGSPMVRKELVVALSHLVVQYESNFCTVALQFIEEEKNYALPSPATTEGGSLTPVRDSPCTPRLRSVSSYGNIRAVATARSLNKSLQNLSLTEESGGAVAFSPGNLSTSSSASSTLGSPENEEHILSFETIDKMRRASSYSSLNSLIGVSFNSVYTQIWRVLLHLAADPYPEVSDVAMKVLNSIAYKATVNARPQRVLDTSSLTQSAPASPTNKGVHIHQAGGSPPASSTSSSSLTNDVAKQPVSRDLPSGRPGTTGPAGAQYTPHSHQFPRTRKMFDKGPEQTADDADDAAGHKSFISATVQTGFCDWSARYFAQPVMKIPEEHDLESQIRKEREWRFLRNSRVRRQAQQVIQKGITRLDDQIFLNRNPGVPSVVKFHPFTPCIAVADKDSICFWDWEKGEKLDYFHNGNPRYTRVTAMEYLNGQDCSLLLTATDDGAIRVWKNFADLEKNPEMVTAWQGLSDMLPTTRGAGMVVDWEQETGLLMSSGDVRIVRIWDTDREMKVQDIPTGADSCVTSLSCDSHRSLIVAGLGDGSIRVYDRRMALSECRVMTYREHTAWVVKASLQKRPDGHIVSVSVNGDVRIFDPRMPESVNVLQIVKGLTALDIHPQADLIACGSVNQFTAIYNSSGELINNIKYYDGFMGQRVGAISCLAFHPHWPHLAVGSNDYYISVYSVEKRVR
UniProt O43148, 83-103: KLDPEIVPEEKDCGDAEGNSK
UniProt P60602: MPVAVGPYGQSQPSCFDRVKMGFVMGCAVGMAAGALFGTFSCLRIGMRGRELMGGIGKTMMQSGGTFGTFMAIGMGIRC
UniProt Q96DX4, 178-198: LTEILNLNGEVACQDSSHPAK

[2] = compound: ClCC(=O)N[C@H]1CCCc2ccccc12; assay: as above; settings: treatment time: 4 h, cell line lysate: HEK293T
Experimental: as §1

Row | Target | log2 mean competition ratio ([1]; 50 µM) | log2 mean competition ratio ([1]; 200 µM) | log2 mean competition ratio ([2]; 50 µM) | log2 mean competition ratio ([2]; 200 µM)
1 | RPL4 C96 (UniProt P36578) | 0.097 | 0.0295 | 0.124 | 0.111
2 | RTKN C62 (UniProt Q9BST9) | 0.0745 | 0.12 | 0.334 | 0.187
3 | SAE1 C146 | -0.144 | -0.172 | -0.0428 | -0.368
4 | RPP14 C78 (UniProt O95059) | 0.169 | -0.387 | 0.51 | -0.277
5 | RRAGC C377 (UniProt Q9HB90) | 0.401 | -0.143 | 0.451 | -0.165
6 | RNF213 C1510 | 0.142 | 0.0644 | 0.166 | 0.0656
7 | RTN3 C582 (UniProt O95197) | -0.223 | -0.0606 | -0.203 | -0.0683
8 | RPS6KA5 C631 (UniProt O75582) | 0.0764 | 0.235 | -0.314 | 0.198
9 | RRP12 C673 (UniProt Q5JTH9) | 0.124 | 0.0304 | -0.0273 | 0.0424
10 | RPL32 C96 | 0.373 | 0.0369 | -0.0574 | -0.0505
11 | RRP7A C8 (UniProt Q9Y3A4) | 0.117 | 0.194 | -0.0878 | 0.0939
12 | RPP30 C257 | 0.0614 | -0.0061 | -0.159 | 0.142
13 | RRP1B C583 (UniProt Q14684) | 0.134 | -0.0232 | -0.047 | -0.041
14 | RTN4R C287 (UniProt Q9BZR6) | 0.125 | 0.0365 | 0.408 | -0.067
15 | RPS6KA5 C475 (UniProt O75582) | 0.162 | -0.284 | -0.0896 | -0.444
16 | RRAS2 C55 (UniProt P62070) | -0.261 | 0.0623 | 0.146 | 0.177
17 | RPL23 C125 (UniProt P62829) | -0.0518 | -0.245 | 0.107 | -0.00306
18 | SACS C4474 (UniProt Q9NZJ4) | -0.24 | 0.0688 | 0.0196 | 0.0884
19 | RPL13A C38 (UniProt P40429) | 0.434 | 0.11 | 0.526 | 0.108
20 | RPL3 C114 (UniProt P39023) | 0.0296 | -0.0217 | -0.102 | -0.0894
21 | RNF213 C1325 | 0.06 | -0.0411 | -0.152 | -0.183
22 | ROCK2 C1257 (UniProt O75116) | 0.0594 | -0.418 | 0.175 | -0.392
23 | RPP40 C49 (UniProt O75818) | -0.0869 | -0.231 | -0.301 | -0.41
24 | RSBN1 C736 (UniProt Q5VWQ0) | -0.144 | 0.247 | 0.0958 | 0.275
25 | RPE C217 (UniProt Q96AT9) | -0.138 | -0.189 | -0.122 | -0.202

Row | Target | log2 mean competition ratio ([1]; 50 µM) | log2 mean competition ratio ([1]; 200 µM) | log2 mean competition ratio ([2]; 50 µM) | log2 mean competition ratio ([2]; 200 µM)
26 | RTKN C341 (UniProt Q9BST9) | 0.243 | -0.171 | -0.014 | -0.065
27 | RPN1 C545 (UniProt P04843) | -0.142 | 0.0518 | -0.131 | 0.0596
28 | RPP38 C80 (UniProt P78345) | 0.113 | -0.0151 | 0.0734 | 0.0285
29 | RRBP1 C933 (UniProt Q9P2E9) | 0.143 | -0.163 | 0.00903 | -0.252
30 | RPRD1B C234 (UniProt Q9NQG5) | -0.334 | -0.0948 | 0.00511 | -0.16
31 | RPS20 C36 (UniProt P60866) | 0.174 | -0.305 | -0.05 | -0.289
32 | RNF214 C23 (UniProt Q8ND24) | -0.498 | -0.0624 | 0.0201 | 0.332
33 | RPSA C163 | -0.00593 | -0.592 | 0.36 | -0.469
34 | RUFY1 C81 (UniProt Q96T51) | 0.582 | 0.224 | 0.617 | 0.0914
35 | RPN2 C100 (UniProt P04844) | 0.77 | 0.492 | 0.134 | -0.523
36 | ROCK1 C1070 (UniProt Q13464) | -0.318 | -0.437 | 0.0528 | -0.183
37 | RUFY1 C351 (UniProt Q96T51) | 0.243 | -0.205 | 0.173 | -0.317
38 | RNF14 C350 (UniProt Q9UBS8) | 0.402 | -0.0498 | 0.253 | 0.232
39 | RPTOR C1202 (UniProt Q8N122) | 0.0469 | 0.0459 | -0.179 | 0.183
40 | RNF34 C149 (UniProt Q969K3) | -0.511 | 0.0102 | -0.126 | 0.222
41 | RNMT C95 (UniProt O43148) | -0.361 | 0.00545 | -0.00168 | -0.0854
42 | RPGRIP1L C173 | -0.114 | -0.0475 | 0.0724 | -0.129
43 | RPS3A C111 | 0.185 | -0.0131 | 0.197 | -0.0507
44 | ROMO1 C15 (UniProt P60602) | -0.116 | 0.738 | -0.0671 | 0.582
45 | RPTOR C713 (UniProt Q8N122) | -0.08 | -0.0295 | 0.26 | 0.206
46 | RPS5 C172 (UniProt P46782) | -0.0104 | -0.473 | 0.00565 | -0.308
47 | RSPRY1 C190 (UniProt Q96DX4) | -0.266 | -0.237 | -0.17 | -0.317
48 | RPL11 C150 (UniProt P62913) | 0.2 | 0.0511 | 0.287 | 0.116
49 | RPLP0 C27 | 0.241 | -0.343 | 0.243 | -0.288
50 | RNF213 C2633 | 0.0216 | -0.142 | 0.228 | -0.0526

Reprinted: entries 27–39
Row | Target | log2 mean competition ratio ([1]; 50 µM) | log2 mean competition ratio ([1]; 200 µM) | log2 mean competition ratio ([2]; 50 µM) | log2 mean competition ratio ([2]; 200 µM)
27 | RPN1 C545 (UniProt P04843) | -0.142 | 0.0518 | -0.131 | 0.0596
28 | RPP38 C80 (UniProt P78345) | 0.113 | -0.0151 | 0.0734 | 0.0285
29 | RRBP1 C933 (UniProt Q9P2E9) | 0.143 | -0.163 | 0.00903 | -0.252
30 | RPRD1B C234 (UniProt Q9NQG5) | -0.334 | -0.0948 | 0.00511 | -0.16
31 | RPS20 C36 (UniProt P60866) | 0.174 | -0.305 | -0.05 | -0.289
32 | RNF214 C23 (UniProt Q8ND24) | -0.498 | -0.0624 | 0.0201 | 0.332
33 | RPSA C163 | -0.00593 | -0.592 | 0.36 | -0.469
34 | RUFY1 C81 (UniProt Q96T51) | 0.582 | 0.224 | 0.617 | 0.0914
35 | RPN2 C100 (UniProt P04844) | 0.77 | 0.492 | 0.134 | -0.523
36 | ROCK1 C1070 (UniProt Q13464) | -0.318 | -0.437 | 0.0528 | -0.183
37 | RUFY1 C351 (UniProt Q96T51) | 0.243 | -0.205 | 0.173 | -0.317
38 | RNF14 C350 (UniProt Q9UBS8) | 0.402 | -0.0498 | 0.253 | 0.232
39 | RPTOR C1202 (UniProt Q8N122) | 0.0469 | 0.0459 | -0.179 | 0.183

From the supplement of paper PMC11732987, “Enantioselective OTUD7B fragment discovery through chemoproteomics screening and high-throughput optimisation” (Communications Chemistry, 2025)
